# Assay results: the supplement of paper PMC7666118
# Chains of the proteins cited; added tags and fusions are not shown. Lines headed by an entry give the natural chain unless they say otherwise; changes in a name come on top.
# UniProt O14908: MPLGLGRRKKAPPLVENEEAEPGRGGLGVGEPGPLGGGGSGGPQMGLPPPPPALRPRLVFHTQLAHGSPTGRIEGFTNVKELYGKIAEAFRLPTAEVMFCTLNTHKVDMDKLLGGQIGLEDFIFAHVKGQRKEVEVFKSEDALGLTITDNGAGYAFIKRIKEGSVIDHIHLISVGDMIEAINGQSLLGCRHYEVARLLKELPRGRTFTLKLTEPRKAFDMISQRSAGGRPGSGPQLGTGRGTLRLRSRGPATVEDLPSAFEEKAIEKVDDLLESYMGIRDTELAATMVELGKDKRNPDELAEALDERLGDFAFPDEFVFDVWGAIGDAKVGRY
# UniProt Q9NWT6: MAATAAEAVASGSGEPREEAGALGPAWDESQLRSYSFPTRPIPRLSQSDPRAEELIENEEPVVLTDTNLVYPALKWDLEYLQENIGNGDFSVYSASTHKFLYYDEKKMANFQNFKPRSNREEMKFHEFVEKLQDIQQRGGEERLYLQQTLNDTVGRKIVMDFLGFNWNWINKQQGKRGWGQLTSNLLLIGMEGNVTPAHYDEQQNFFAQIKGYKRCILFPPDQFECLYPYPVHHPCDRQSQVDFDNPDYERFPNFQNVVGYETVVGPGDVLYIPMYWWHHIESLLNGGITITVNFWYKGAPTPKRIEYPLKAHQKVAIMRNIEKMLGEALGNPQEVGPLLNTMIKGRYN
# UniProt Q5T447: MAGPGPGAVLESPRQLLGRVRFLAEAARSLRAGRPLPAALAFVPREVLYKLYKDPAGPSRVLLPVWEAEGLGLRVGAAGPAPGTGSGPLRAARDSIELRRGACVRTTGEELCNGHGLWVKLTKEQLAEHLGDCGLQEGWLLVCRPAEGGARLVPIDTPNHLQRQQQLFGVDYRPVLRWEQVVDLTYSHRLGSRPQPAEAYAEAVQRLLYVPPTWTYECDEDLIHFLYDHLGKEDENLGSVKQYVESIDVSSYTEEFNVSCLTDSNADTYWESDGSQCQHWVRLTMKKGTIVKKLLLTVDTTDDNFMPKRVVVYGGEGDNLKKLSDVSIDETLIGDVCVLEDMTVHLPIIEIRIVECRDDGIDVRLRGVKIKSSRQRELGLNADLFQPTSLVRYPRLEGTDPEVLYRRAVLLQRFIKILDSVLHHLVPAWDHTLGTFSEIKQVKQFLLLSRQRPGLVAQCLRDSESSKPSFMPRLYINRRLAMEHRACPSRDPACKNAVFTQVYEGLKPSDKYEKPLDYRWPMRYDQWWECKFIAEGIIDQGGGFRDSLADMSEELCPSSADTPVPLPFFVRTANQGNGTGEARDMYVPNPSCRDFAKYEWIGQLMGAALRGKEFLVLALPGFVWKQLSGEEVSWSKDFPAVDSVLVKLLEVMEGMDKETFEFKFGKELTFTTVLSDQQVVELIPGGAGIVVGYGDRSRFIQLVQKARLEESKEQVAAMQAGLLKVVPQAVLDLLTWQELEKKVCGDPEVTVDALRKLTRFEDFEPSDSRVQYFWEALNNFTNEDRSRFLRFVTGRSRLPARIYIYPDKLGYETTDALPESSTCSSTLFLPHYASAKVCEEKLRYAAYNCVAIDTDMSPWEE
# UniProt Q9BTY7: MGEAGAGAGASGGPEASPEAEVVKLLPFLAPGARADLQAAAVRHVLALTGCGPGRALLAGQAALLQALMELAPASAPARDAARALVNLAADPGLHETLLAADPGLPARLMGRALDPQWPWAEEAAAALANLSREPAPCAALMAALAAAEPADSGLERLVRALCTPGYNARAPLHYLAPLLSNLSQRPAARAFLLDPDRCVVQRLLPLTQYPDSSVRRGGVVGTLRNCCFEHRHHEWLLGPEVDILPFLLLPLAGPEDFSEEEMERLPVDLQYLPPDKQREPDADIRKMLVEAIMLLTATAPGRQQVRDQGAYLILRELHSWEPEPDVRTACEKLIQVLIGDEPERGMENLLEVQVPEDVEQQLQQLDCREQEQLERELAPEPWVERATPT
# UniProt Q5GLZ8: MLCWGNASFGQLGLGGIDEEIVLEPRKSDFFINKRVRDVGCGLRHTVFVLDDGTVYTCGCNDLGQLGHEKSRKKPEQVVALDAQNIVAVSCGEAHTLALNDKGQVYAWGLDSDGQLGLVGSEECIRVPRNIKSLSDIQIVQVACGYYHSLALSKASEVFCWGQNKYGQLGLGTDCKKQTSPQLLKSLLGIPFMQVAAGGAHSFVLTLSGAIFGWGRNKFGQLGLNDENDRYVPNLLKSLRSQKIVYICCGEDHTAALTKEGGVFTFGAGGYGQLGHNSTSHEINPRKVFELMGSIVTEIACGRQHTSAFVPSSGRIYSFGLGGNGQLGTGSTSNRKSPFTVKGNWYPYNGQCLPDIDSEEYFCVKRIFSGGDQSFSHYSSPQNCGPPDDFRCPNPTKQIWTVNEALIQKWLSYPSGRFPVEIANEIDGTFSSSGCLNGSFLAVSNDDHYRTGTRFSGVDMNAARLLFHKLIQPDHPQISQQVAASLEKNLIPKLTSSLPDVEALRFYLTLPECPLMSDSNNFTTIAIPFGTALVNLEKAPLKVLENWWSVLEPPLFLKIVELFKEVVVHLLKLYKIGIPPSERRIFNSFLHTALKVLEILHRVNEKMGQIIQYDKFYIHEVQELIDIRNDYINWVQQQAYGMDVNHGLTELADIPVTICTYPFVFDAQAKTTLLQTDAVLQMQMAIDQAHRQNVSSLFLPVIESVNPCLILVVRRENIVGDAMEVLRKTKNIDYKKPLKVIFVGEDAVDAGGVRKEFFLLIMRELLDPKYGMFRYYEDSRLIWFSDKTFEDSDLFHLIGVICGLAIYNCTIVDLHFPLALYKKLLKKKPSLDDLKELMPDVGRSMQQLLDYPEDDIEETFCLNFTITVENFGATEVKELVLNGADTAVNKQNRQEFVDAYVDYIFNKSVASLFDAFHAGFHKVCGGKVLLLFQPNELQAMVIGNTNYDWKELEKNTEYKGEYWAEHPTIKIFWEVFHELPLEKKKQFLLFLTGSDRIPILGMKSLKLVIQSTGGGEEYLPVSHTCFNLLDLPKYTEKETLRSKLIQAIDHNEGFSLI
# UniProt Q9BXV9: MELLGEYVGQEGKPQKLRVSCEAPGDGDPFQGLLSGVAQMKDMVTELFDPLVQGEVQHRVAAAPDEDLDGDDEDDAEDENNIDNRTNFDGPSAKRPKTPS
# UniProt P82970: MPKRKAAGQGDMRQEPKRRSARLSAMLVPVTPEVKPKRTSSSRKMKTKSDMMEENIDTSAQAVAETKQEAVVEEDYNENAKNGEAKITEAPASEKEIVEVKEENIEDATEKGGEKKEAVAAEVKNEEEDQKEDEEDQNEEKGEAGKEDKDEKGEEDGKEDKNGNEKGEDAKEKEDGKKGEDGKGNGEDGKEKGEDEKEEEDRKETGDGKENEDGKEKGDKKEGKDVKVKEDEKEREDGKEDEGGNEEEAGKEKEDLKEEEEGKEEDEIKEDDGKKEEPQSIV
# UniProt Q9H3C7, whole entry: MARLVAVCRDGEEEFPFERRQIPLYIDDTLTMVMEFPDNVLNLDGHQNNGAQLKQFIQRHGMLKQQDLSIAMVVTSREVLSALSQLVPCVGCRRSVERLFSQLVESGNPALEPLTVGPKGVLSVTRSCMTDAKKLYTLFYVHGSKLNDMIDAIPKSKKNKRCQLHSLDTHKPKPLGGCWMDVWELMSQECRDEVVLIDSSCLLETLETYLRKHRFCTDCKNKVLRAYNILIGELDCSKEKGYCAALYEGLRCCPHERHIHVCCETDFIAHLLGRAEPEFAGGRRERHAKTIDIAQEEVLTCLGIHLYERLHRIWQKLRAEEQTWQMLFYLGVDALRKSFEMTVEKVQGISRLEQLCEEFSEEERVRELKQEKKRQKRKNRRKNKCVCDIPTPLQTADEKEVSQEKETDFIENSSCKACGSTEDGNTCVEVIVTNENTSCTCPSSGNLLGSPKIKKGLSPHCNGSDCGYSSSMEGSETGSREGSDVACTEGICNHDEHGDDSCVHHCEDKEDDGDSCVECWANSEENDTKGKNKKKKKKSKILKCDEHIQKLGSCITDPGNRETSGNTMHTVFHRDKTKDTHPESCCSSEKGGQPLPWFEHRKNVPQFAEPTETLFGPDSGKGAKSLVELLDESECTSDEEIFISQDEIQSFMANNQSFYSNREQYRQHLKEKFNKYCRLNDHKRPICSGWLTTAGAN
# UniProt P49840: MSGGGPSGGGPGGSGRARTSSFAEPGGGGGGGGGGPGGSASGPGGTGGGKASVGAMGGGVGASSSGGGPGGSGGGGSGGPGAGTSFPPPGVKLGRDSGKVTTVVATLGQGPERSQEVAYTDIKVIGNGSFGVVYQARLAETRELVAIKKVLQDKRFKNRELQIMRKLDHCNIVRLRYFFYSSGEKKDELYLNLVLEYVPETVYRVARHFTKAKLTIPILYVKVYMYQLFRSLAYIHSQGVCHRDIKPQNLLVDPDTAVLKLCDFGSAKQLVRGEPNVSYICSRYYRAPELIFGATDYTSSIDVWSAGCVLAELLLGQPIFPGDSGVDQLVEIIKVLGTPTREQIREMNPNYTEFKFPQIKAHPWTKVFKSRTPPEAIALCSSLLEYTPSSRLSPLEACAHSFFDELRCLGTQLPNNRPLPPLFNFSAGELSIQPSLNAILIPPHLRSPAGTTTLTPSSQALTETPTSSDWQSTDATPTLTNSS
# UniProt Q4V328: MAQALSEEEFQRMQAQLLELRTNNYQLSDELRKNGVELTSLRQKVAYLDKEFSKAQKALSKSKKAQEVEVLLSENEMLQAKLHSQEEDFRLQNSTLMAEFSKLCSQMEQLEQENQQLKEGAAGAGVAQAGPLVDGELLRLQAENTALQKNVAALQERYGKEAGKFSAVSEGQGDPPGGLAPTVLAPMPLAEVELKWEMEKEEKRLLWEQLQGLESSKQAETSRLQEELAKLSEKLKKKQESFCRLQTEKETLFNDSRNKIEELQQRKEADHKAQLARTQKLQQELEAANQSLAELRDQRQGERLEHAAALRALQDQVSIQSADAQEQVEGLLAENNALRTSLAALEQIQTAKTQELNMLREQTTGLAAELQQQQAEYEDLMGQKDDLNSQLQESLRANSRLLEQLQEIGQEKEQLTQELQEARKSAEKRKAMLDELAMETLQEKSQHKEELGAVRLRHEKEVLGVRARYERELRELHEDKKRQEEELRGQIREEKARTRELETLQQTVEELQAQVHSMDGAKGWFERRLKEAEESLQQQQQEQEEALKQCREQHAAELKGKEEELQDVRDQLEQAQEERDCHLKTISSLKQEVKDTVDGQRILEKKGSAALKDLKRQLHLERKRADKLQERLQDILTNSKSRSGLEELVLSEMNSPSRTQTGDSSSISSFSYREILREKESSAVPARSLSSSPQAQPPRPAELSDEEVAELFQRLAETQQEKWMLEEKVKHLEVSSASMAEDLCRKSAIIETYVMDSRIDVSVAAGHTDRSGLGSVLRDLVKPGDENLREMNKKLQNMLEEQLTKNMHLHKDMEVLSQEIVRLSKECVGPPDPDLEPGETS
# UniProt Q9NW75: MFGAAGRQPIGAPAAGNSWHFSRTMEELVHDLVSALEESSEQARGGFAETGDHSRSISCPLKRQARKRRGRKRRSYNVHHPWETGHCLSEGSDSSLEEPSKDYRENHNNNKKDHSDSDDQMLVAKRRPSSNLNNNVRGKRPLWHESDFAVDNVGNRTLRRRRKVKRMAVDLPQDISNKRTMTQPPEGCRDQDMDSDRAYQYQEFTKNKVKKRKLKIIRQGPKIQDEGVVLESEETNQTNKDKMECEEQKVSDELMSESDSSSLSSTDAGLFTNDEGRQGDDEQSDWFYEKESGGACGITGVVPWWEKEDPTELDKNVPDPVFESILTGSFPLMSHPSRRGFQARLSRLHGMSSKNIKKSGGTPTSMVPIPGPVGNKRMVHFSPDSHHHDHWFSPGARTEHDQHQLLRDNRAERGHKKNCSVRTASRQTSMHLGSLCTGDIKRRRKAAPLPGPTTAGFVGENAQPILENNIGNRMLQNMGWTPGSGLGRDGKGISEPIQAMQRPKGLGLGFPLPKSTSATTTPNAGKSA
# UniProt Q9H840: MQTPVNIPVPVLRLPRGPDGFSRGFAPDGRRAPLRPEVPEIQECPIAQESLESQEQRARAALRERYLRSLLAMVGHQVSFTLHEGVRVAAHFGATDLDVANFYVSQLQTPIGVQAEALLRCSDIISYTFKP
# UniProt Q969Y2: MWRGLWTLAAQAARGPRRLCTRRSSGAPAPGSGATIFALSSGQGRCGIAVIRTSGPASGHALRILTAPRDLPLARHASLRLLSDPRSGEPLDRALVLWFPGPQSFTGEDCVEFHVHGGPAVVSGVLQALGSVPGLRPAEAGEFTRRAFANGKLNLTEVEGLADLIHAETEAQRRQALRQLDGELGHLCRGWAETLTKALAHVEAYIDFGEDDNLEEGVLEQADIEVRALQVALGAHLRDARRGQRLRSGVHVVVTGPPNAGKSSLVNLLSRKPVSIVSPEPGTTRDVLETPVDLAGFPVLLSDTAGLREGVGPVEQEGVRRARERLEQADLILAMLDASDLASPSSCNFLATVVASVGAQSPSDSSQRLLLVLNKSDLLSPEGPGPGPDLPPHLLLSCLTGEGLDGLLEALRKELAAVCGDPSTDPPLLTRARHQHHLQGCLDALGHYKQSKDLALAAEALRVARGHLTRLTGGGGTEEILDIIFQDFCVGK
# This is one part of the list.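 The calls were made as follows: active = dose-dependent thermal stabilisation significant by F-test of dose-response against flat model at 10% FDR; inactive = not significant.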
# Compound: Nc1nc2c(ncn2[C@@H]2O[C@H](COP(=O)(O)OP(=O)(O)OP(=O)(O)O)[C@@H](O)[C@H]2O)c(=O)[nH]1
# Assay: dose-dependent thermal stabilisation call (2D-TPP, DLPTP, 10% FDR) (binary (1 = stabilised)); higher = stabilised by the compound
# Conditions: system: Jurkat gel-filtered lysate; concentration range 1-500 µM
row,Target,dose-dependent thermal stabilisation call
1,GIPC1 (UniProt O14908),inactive: 0
2,HIF1AN (UniProt Q9NWT6),inactive: 0
3,GATAD2A (UniProt Q86YP4),inactive: 0
4,HEXA (UniProt P06865),inactive: 0
5,HACL1 (UniProt Q9UJ83),inactive: 0
6,HECTD3 (UniProt Q5T447),inactive: 0
7,HMOX2 (UniProt P30519),inactive: 0
8,HEATR3 (UniProt Q7Z4Q2),inactive: 0
9,GALNT2 (UniProt Q10471),inactive: 0
10,HNRNPLL (UniProt Q8WVV9),active: 1
11,GPHN (UniProt Q9NQX3),inactive: 0
12,GAMT (UniProt Q14353),inactive: 0
13,GNAI2 (UniProt P04899),active: 1
14,HGH1 (UniProt Q9BTY7),inactive: 0
15,HERC4 (UniProt Q5GLZ8),inactive: 0
16,GON7 (UniProt Q9BXV9),inactive: 0
17,GTPBP1 (UniProt O00178),active: 1
18,GTF2B (UniProt Q00403),active: 1

# Looked up above.
# In dose-dependent thermal stabilisation call, HEXA (UniProt P06865) is listed with inactive: 0
# In dose-dependent thermal stabilisation call, GPHN (UniProt Q9NQX3) is listed with inactive: 0

# Remaining list, next part:

row,Target,dose-dependent thermal stabilisation call
1,GRK3 (UniProt P35626),active: 1
2,HMGN5 (UniProt P82970),inactive: 0
3,HDDC3 (UniProt Q8N4P3),inactive: 0
4,GMPS (UniProt P49915),inactive: 0
5,GOSR1 (UniProt O95249),inactive: 0
6,GGNBP2 (UniProt Q9H3C7),inactive: 0
7,GFPT1 (UniProt Q06210),inactive: 0
8,GSK3A (UniProt P49840),inactive: 0
9,GRIPAP1 (UniProt Q4V328),inactive: 0
10,GCSH (UniProt P23434),inactive: 0
11,GPATCH2 (UniProt Q9NW75),active: 1
12,GEMIN7 (UniProt Q9H840),inactive: 0
13,GTPBP3 (UniProt Q969Y2),active: 1
14,GPI (UniProt P06744),inactive: 0
15,GPN1 (UniProt Q9HCN4),active: 1
16,GRHPR (UniProt Q9UBQ7),active: 1
17,GSTM2 (UniProt P28161),active: 1
